Experimental data: patent US12257245B2, “Methods and compositions for inhibition of EGF/EGFR pathway in combination with anaplastic lymphoma kinase inhibitors” (In3Bio Ltd., priority 2018, dated 2025)
Entries after “also recorded” stand apart in the source; their conditions may differ. For at least one compound, name, drawing or mass did not settle the structure.

Assays:
[1] = system: disease refractory to crizotinib; settings: 180 mg once daily with 7-day lead-in at 90 mg; cited from earlier work
[2] = system: patients who had received crizotinib; settings: same regimen; cited from earlier work
DLD1 cells (KRAS G13D) = assay: DLD1 cell viability; assay type: cell-based; settings: all concentrations of Trametinib tested
[3] = system: pEGFR (TYR 1068), pSTAT3 (TYR 705), pAKT (SER 473), pERK1/2 (THR 202/TYR 204) in DLD1 cells; assay: Western blot of signaling in DLD1 cells; assay type: cell-based
Experimental: The effects of BVN22E antibodies were investigated in DLD1 cells via Western Blots, see FIGS. 42 and 43.
The effect of Trametinib treatment in the DLD1 cell line was also assessed in a western blot assay and the results are presented in FIG. 45. […] Inhibition of pStat3 and pERK1/2 were observed, though only at concentrations beyond the physiological concentrations of Trametinib used in patients.
BVN22E antibodies alone inhibited phosphorylation of EGFR.

A549 cells (KRAS G12S) = assay: A549 cell viability; assay type: cell-based
[4] = system: pEGFR (TYR 1068), pSTAT3 (TYR 705), pAKT (SER 473), pERK1/2 (THR 202/TYR 204) in A549 cells; assay: Western blot of signaling in A549 cells; assay type: cell-based; settings: A549, 2 hour incubation
H23 cells (KRAS G12C) = assay: H23 cell viability; assay type: cell-based
[5] = system: pEGFR (TYR 1068), pSTAT3 (TYR 705), pAKT (SER 473), pERK1/2 (THR 202/TYR 204) in H23 cells; assay: Western blot of signaling in H23 cells; assay type: cell-based; settings: H23, 2 hour incubation
[6] = system: LS174T cells (KRAS mutated); assay: LS174T cell viability; assay type: cell-based
[7] = system: pEGFR (TYR 1068), pSTAT3 (TYR 705), pAKT (SER 473), pERK1/2 (THR 202/TYR 204) in LS174T cells; assay: Western blot of signaling in LS174T cells; assay type: cell-based
[8] = 2 hour (BVN22E antibodies alone: 2 and 24 hour)
[9] = Trametinib alone within 1 to 10 nM

| SMILES | median progression-free survival [1] [months] | progression-free survival [2] [months] | DLD1 cell viability with Trametinib in the presence of EGF compared to Trametinib alone (DLD1 cells (KRAS G13D)) | pSTAT3 ([3]; 2 hour) | pAKT [3, 8] | pEGFR [3, 8] | pERK1/2 [3, 8] | A549 cell viability with Trametinib in the presence and absence of EGF (A549 cells (KRAS G12S)) | pERK1/2 [4] | Trametinib inhibition of H23 cell viability in the presence of EGF (H23 cells (KRAS G12C)) | pERK1/2 [5] | LS174T cell proliferation ([6]; Trametinib alone) | effect of Trametinib on LS174T cell proliferation when EGF present ([6]; with EGF) | pERK1/2 ([7]; 2 hour, higher concentrations of Trametinib, not clinically relevant) | pAKT [7, 9] | pEGFR [7, 9] | pERK1/2 [7, 9] | pSTAT3 [7, 9] |
| --- | --- | --- | --- | --- | --- | --- | --- | --- | --- | --- | --- | --- | --- | --- | --- | --- | --- | --- |
| COc1cc(N2CCC(N3CCN(C)CC3)CC2)ccc1Nc1ncc(Cl)c(Nc2ccccc2P(C)(C)=O)n1 [Brigatinib] | 16.7 | 16.3 | – | – | – | – | – | – | – | – | – | – | – | – | – | – | – | – |
| CC(=O)Nc1cccc(-n2c(=O)n(C3CC3)c(=O)c3c(Nc4ccc(I)cc4F)n(C)c(=O)c(C)c32)c1 [Trametinib] | – | – | cell viability was enhanced in the presence of EGF | Inhibition; also recorded: did not affect | nor any effect; also recorded: did not affect | did not affect | inhibition | EGF significantly enhanced cell viability | completely inhibition | significantly inhibited by the presence of EGF | significantly inhibited | inhibited LS174T cell proliferation | diminished when EGF was present | an effect on pERK1/2 was observed | did not affect the phosphorylation | did not affect the phosphorylation | did not affect the phosphorylation | did not affect the phosphorylation |
